Test results as given in the supplement of paper PMC12823440, “Inhibitors supercharge kinase turnover through native proteolytic circuits” (Nature, 2025).
Structures can show the parent of a compound that is named as a salt. Some of the results follow. The calls rarely recur for the same compound in another form.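 Kinases, fused to nanoluciferase, were expressed in K562 cells; luminescence was measured every 4 h from 2 to 18 h as percent of control (DMSO = 100%, positive control = 0%). A time point is decreased if signal falls significantly (2 sigma). Hits were called by the authors by a rule that is not shown; the count of time points alone does not decide it.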

Sequences of proteins named here, by UniProt entry; tags and fusion partners are left off. A change or cut given only in a name is not applied to a line headed by its entry.
UniProt Q9UM73: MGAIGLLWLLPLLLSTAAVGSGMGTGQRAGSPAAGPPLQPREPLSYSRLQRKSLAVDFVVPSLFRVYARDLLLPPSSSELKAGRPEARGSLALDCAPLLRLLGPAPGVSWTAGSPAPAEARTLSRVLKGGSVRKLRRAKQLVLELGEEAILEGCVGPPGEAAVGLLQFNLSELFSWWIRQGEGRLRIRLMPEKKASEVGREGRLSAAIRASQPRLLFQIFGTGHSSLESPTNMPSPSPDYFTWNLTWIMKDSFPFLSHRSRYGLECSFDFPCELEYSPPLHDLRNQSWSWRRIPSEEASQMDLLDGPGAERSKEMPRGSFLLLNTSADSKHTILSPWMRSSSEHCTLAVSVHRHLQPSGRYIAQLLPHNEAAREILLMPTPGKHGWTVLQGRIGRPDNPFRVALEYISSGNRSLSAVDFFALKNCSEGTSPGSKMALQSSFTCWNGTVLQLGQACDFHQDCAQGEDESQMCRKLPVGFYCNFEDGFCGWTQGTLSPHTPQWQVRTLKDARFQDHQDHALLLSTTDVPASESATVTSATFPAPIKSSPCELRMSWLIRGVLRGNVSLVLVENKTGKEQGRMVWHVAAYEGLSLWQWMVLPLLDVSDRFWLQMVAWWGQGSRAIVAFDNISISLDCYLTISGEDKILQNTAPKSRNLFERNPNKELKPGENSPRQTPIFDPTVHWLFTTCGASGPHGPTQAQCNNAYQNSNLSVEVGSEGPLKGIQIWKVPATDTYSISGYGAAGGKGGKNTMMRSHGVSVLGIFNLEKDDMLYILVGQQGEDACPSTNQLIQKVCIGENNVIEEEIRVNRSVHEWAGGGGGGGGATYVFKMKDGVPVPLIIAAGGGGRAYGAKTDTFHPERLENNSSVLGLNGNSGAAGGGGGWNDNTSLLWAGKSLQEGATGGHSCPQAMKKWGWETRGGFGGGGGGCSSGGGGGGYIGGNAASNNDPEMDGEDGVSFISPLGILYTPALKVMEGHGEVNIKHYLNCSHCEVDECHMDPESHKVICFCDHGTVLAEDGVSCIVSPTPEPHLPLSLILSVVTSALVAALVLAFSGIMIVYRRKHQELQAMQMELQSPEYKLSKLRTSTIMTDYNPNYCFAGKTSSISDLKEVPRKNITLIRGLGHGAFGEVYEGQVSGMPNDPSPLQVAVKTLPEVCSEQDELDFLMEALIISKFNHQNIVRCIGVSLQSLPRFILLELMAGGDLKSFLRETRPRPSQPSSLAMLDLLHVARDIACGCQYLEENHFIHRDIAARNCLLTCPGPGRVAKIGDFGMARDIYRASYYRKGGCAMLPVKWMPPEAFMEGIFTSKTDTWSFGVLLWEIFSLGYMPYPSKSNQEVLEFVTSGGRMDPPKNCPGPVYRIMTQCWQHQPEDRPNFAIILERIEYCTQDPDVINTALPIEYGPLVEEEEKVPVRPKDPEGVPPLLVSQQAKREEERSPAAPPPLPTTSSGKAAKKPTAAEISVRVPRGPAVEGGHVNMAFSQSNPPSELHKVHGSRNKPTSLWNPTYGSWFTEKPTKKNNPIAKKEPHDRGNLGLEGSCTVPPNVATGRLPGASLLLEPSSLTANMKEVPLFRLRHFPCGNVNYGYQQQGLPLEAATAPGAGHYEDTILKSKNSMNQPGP
UniProt P10398: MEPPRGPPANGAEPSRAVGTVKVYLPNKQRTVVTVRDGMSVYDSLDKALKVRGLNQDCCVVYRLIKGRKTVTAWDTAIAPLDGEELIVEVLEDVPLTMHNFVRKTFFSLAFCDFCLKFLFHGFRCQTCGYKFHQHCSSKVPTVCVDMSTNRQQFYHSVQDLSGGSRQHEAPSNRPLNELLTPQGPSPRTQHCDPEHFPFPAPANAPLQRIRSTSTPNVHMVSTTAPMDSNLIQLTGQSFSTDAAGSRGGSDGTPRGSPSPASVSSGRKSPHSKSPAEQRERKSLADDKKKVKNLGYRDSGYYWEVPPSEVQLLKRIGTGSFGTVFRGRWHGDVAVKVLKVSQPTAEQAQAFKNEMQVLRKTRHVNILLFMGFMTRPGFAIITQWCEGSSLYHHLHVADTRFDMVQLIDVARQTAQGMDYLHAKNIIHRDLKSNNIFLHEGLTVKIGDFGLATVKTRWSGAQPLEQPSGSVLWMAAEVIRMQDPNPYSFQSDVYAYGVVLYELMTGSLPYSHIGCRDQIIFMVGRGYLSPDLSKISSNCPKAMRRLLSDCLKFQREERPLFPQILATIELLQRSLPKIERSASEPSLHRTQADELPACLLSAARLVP
UniProt O14965: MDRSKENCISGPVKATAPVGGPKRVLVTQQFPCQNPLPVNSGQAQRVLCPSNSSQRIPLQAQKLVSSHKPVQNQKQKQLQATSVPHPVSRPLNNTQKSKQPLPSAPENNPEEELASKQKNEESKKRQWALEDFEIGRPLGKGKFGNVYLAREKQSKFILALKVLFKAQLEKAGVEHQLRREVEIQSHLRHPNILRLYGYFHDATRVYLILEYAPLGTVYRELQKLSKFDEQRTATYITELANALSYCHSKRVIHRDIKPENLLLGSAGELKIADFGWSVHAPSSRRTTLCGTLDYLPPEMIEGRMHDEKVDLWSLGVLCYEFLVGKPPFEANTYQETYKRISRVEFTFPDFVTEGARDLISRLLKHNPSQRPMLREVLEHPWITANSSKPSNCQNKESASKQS
UniProt Q96GD4, whole entry: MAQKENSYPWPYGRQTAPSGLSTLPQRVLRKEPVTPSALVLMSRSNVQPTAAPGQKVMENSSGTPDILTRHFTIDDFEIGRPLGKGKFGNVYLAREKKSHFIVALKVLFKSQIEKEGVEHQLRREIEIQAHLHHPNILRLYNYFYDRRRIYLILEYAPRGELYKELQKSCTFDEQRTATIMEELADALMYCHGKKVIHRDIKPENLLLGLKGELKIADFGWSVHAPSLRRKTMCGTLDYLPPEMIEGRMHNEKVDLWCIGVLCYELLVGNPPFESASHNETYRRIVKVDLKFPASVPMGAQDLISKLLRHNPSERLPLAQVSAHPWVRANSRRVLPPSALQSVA
UniProt Q9UQB9: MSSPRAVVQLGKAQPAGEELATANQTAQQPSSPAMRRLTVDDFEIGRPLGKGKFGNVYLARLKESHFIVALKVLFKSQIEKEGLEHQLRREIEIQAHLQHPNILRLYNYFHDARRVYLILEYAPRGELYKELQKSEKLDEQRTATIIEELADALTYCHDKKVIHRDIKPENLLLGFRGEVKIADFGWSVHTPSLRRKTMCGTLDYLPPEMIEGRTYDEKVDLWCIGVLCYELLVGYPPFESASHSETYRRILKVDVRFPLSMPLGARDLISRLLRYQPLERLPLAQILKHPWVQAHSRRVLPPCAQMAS
UniProt P51451: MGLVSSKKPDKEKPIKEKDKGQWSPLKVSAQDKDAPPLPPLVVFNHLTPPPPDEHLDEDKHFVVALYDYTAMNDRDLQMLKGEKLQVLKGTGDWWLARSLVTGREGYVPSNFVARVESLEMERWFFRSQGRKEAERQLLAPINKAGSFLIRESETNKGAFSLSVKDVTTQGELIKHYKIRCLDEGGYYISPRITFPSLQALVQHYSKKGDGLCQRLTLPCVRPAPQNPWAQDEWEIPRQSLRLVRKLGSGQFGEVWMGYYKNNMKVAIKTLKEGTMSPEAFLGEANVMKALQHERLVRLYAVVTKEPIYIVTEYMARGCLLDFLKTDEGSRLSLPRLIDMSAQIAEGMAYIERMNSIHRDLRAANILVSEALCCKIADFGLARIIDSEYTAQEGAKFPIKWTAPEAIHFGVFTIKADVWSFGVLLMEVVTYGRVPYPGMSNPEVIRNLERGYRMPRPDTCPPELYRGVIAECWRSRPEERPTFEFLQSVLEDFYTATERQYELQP
UniProt P51813: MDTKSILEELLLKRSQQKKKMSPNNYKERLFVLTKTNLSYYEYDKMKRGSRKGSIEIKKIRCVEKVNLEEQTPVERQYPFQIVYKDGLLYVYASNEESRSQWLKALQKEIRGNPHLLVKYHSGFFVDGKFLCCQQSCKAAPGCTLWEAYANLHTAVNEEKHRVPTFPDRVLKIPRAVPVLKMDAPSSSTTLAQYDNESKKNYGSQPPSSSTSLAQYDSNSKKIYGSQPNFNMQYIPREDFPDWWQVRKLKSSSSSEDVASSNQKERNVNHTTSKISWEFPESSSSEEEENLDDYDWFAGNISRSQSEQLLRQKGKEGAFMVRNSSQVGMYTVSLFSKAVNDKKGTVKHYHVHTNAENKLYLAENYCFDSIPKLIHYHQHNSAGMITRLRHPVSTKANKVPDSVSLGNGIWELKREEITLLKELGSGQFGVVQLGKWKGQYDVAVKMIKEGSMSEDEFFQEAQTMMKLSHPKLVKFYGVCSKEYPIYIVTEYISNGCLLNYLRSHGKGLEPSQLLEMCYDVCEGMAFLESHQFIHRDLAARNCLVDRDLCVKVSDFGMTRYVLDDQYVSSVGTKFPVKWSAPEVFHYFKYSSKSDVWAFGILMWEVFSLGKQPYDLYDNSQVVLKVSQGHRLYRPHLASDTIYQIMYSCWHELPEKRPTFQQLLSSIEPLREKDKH
UniProt P15056, whole entry, looked up: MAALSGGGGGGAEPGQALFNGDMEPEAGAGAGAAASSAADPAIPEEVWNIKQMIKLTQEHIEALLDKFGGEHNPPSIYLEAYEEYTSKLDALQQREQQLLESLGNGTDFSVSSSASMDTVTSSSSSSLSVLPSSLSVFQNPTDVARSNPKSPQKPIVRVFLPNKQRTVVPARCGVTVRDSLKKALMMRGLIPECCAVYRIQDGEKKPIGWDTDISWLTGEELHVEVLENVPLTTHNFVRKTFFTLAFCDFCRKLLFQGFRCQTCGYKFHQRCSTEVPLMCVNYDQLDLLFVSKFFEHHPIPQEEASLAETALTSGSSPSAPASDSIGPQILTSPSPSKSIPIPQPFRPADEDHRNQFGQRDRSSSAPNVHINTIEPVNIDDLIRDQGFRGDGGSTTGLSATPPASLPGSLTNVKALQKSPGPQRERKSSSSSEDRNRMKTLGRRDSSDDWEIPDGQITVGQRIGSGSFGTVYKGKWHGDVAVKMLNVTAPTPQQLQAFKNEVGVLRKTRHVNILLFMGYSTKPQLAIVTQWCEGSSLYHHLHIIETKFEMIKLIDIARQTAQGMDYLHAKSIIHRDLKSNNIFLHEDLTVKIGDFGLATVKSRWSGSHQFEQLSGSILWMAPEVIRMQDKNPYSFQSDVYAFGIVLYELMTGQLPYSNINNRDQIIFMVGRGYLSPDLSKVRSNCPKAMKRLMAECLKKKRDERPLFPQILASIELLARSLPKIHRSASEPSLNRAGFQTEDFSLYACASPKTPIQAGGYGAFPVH
UniProt Q06187: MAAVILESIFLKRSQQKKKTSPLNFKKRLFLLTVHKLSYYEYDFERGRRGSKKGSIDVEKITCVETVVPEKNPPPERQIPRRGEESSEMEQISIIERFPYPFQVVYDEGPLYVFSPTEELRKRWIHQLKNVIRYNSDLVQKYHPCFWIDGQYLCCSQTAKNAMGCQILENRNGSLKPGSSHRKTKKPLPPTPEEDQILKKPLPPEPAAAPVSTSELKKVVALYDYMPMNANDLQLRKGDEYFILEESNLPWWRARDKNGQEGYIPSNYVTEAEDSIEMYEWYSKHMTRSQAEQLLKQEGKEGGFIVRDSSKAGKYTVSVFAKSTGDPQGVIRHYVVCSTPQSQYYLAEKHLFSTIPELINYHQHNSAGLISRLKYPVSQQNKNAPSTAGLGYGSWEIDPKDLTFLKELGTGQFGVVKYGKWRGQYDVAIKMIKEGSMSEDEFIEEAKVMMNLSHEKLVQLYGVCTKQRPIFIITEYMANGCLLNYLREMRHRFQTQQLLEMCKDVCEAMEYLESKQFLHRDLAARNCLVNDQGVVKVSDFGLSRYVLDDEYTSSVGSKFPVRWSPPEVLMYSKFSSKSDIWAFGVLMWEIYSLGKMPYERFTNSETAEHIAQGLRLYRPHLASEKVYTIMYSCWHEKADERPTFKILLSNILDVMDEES

Columns and labels:
Assay in all cases: number of time points (of 5) at which kinase-Nluc abundance scored as decreased, DMSO-normalised (count); higher = more persistent destabilization
Conditions in all cases: K562; 2-18 h
[1] = target: ALK (UniProt Q9UM73)
[2] = target: ARAF (UniProt P10398)
[3] = target: AURKA (UniProt O14965)
[4] = target: AURKB (UniProt Q96GD4)
[5] = target: AURKC (UniProt Q9UQB9)
[6] = target: BLK (UniProt P51451)
[7] = target: BMX (UniProt P51813)
[8] = target: BRAF (UniProt P15056)
[9] = tested on: BRAF_V600E
[10] = target: BTK (UniProt Q06187)

Row | Structure (SMILES) | number of time points [1] | number of time points [2] | number of time points [3] | number of time points [4] | number of time points [5] | number of time points [6] | number of time points [7] | number of time points [8] | number of time points [9] | number of time points [10]
1 | O=C(Nc1nc2ccc(NC(=O)C34CC5CC(CC(C5)C3)C4)cc2s1)c1ccccc1 (10 µM) | 0 | 0 | 0 | 0 | 0 | 0 | 1 | 0 | 0 | 0
2 | Oc1ccc(/C=C/c2cc(O)cc(O)c2)cc1 [Resveratrol] (10 µM) | 0 | 0 | 0 | 0 | 0 | 0 | 0 | 0 | 0 | 0
3 | C=CC(=O)Nc1cc(Nc2nccc(-n3cc(CN(C)C)c(-c4ccccc4)n3)n2)c(OC)cc1N1CCOCC1 [Lazertinib] (10 µM) | 0 | 0 | 0 | 0 | 0 | 0 | 0 | 0 | 0 | 0
4 | CC(C)N1CCN(c2ccc(Nc3ncc4cc5n(c4n3)C3(CCCCC3)CNC5=O)nc2)CC1 [Lerociclib (dihydrochloride)] (2 µM) | 3 | 0 | 3 | 3 | 0 | 0 | 1 | 0 | 0 | 0
5 | C[C@@H]1CC(=O)c2c(ccc3c2C(=O)c2cccc(O)c2C3=O)C1 [Ochromycinone] (10 µM) | 0 | 0 | 0 | 0 | 0 | 0 | 0 | 0 | 0 | 0
6 | C[C@H](NC(=O)[C@H]1NCC[C@@H]1O)c1ccc(-c2noc(CCC3CCCC3)n2)cc1 (10 µM) | 0 | 0 | 0 | 0 | 0 | 0 | 0 | 0 | 0 | 0
7 | O=c1cc(-c2cccc3c2Sc2ccccc2S3)oc(N2CCOCC2)c1 (10 µM) | 0 | 0 | 0 | 0 | 0 | 0 | 0 | 0 | 0 | 0
8 | Cc1ccc2c(Nc3cccc(Cl)c3F)nccc2c1NC(=O)c1csc2c(N)ncnc12 [Belvarafenib] (10 µM) | 0 | 0 | 0 | 0 | 0 | 0 | 0 | 5 | 0 | 0
9 | Cn1cc(C2=C(c3cccc(N)c3)C(=O)NC2=O)c2ccccc21 (10 µM) | 0 | 0 | 0 | 0 | 0 | 0 | 0 | 0 | 0 | 0
10 | CC(C)CCNC(=O)c1ccc2c(c1)nc(Nc1n[nH]c3ccc(-c4ccccc4OC(F)(F)F)cc13)n2C1CCC(O)CC1 (stereo not drawn) [IRAK inhibitor 4 (trans)] (10 µM) | 0 | 0 | 0 | 0 | 0 | 0 | 0 | 0 | 0 | 0
11 | CC(C)=CCc1c(-c2ccc(O)cc2O)oc2c3c(cc(O)c2c1=O)OC(C)(C)C=C3 [Morusin] (2.5 µM) | 0 | 0 | 0 | 0 | 0 | 0 | 0 | 0 | 0 | 0
12 | Cc1cccc2c3c(ccc12)C(=O)C1=C(OCC1C)C3=O (stereo not given) [Dihydroisotanshinone I] (2.5 µM) | 0 | 0 | 0 | 0 | 0 | 0 | 0 | 0 | 0 | 0
13 | Cc1ccc(-c2csc3ncnc(SCCC(=O)O)c23)cc1 (10 µM) | 0 | 0 | 0 | 0 | 0 | 0 | 0 | 0 | 0 | 0
14 | C[C@H](Nc1ncnc2[nH]cnc12)c1cc2ccc(F)cc2nc1-c1ccccn1 (10 µM) | 0 | 0 | 0 | 0 | 0 | 0 | 0 | 0 | 0 | 0
15 | CCc1ccc(OCC(=O)Nc2ccc(F)c([N+](=O)[O-])c2)cc1 (10 µM) | 0 | 0 | 0 | 0 | 0 | 0 | 0 | 0 | 0 | 0
16 | CC(=O)c1c(C)c2cnc(Nc3ccc(N4CCN(C(=O)CNc5cccc6c5C(=O)N(C5CCC(=O)NC5=O)C6=O)CC4)cn3)nc2n(C2CCCC2)c1=O (stereo not given) (10 µM) | 0 | 0 | 0 | 0 | 0 | 0 | 0 | 0 | 0 | 0
17 | O=C(Nc1nc(=O)n(Cc2ccc(Cl)cc2)s1)c1ccc(Cl)cc1 (10 µM) | 0 | 0 | 0 | 0 | 0 | 0 | 0 | 0 | 0 | 0

Whole records, quoted from the list. Order of values: number of time points [1] | number of time points [2] | number of time points [3] | number of time points [4] | number of time points [5] | number of time points [6] | number of time points [7] | number of time points [8] | number of time points [9] | number of time points [10]
CC(C)N1CCN(c2ccc(Nc3ncc4cc5n(c4n3)C3(CCCCC3)CNC5=O)nc2)CC1 [Lerociclib (dihydrochloride)] (2 µM) is listed with 3 | 0 | 3 | 3 | 0 | 0 | 1 | 0 | 0 | 0
CC(C)CCNC(=O)c1ccc2c(c1)nc(Nc1n[nH]c3ccc(-c4ccccc4OC(F)(F)F)cc13)n2C1CCC(O)CC1 (stereo not drawn) [IRAK inhibitor 4 (trans)] (10 µM) is listed with 0 | 0 | 0 | 0 | 0 | 0 | 0 | 0 | 0 | 0

Continuation.

Row | Structure (SMILES) | number of time points [1] | number of time points [2] | number of time points [3] | number of time points [4] | number of time points [5] | number of time points [6] | number of time points [7] | number of time points [8] | number of time points [9] | number of time points [10]
18 | O=C(NC1CCOCC1)c1ccc(-c2cc(-c3c[nH]nc3-c3ccccn3)ccn2)cc1 (10 µM) | 0 | 0 | 0 | 0 | 0 | 0 | 0 | 0 | 0 | 0
19 | O=c1[nH]c(C2CCCN2)nc2c1oc1ccc(Cl)cc12 (stereo not given) [XL413 (hydrochloride)] (10 µM) | 0 | 0 | 0 | 0 | 0 | 0 | 0 | 0 | 0 | 0
20 | COc1ccc(-c2c(C)nn3c(NCCN4CCOCC4)cc(C)nc23)cc1OC (10 µM) | 0 | 0 | 0 | 0 | 0 | 0 | 0 | 0 | 0 | 0
21 | C=CC(=O)N1C(=O)CC(c2ccc(F)cc2)Sc2ccccc21 (stereo not drawn) [GSK-3β inhibitor 3] (10 µM) | 1 | 0 | 1 | 0 | 0 | 0 | 1 | 0 | 1 | 0
22 | Cc1nn(C)c2c1C(c1ccc(C(F)(F)F)cc1)C(C#N)=C(N)O2 (stereo not given) (10 µM) | 0 | 0 | 0 | 0 | 0 | 0 | 0 | 0 | 0 | 0
23 | CC[C@@](C)(Nc1ccnc(-c2c[nH]c3ncccc23)n1)C(=O)NCC(F)(F)F [Decernotinib] (10 µM) | 0 | 0 | 0 | 0 | 0 | 0 | 0 | 0 | 0 | 0
24 | C=CCc1ccc(O)c(-c2ccc(O)c(CC=C)c2)c1 [Honokiol] (10 µM) | 0 | 0 | 0 | 0 | 0 | 0 | 0 | 0 | 0 | 0
25 | O=C1NC(=O)C(c2cnc3ccccn23)=C1c1cn2c3c(cc(F)cc13)CNCC2 [GSK-3 inhibitor 1] (2.5 µM) | 0 | 0 | 0 | 0 | 0 | 0 | 0 | 2 | 0 | 0
26 | COc1cc(N2CCOCC2)ccc1NC(=O)c1csc(-c2cccnc2)n1 [IRAK inhibitor 6] (10 µM) | 0 | 0 | 0 | 0 | 0 | 0 | 0 | 0 | 0 | 0
27 | Cc1cc(-c2ccnc(Nc3cnn(C)c3)n2)ccc1CNC(=O)N1CC(OC(C)C)C1 (10 µM) | 0 | 0 | 0 | 0 | 0 | 0 | 0 | 0 | 0 | 0
28 | O=Nc1c2[nH]c3ccccc3nc-2c2ccccc12 [IQ-1S (free acid)] (2.5 µM) | 0 | 0 | 0 | 0 | 0 | 0 | 0 | 0 | 0 | 0
29 | CN1C(=O)[C@@H](NC(=O)c2n[nH]c(Cc3ccccc3)n2)COc2ccccc21 (10 µM) | 0 | 0 | 0 | 0 | 0 | 0 | 0 | 0 | 0 | 0
30 | C[C@H](Nc1ncnc2nc[nH]c12)c1cc2cccc(Cl)c2c(=O)n1-c1ccccc1 [Duvelisib] (10 µM) | 0 | 0 | 0 | 0 | 0 | 0 | 0 | 0 | 0 | 0
31 | CC(C)S(=O)(=O)c1ccc2nccc(Nc3ccc4scnc4c3)c2c1 (10 µM) | 0 | 0 | 0 | 0 | 0 | 0 | 0 | 0 | 1 | 0
32 | Cc1c(-c2ccc(C(N)=O)c3[nH]c4cc(C(C)(C)O)ccc4c23)cccc1-n1cnc2ccccc2c1=O (2.5 µM) | 0 | 0 | 0 | 0 | 0 | 0 | 0 | 0 | 0 | 0
33 | CCCCCCCC/C=C\CCCCCCCCCCCC(=O)O [Erucic acid] (10 µM) | 0 | 0 | 0 | 0 | 0 | 0 | 0 | 0 | 0 | 0
